Source: article PMC12501252
These are yes or no findings as the source states them, for the method shown. For some assays here: A result given as binding can be weak or reduced; the word gives no strength.

Key:
[1] = biological target: T1, CHCHD2 (mouse) (mouse (endogenous in mouse tissues)) (UniProt Q9D1L0); assay: native gel or EMSA; two-dimensional BN-PAGE/SDS-PAGE with Western blot; mitochondria from brain, heart and skeletal muscle of Chchd2+/+ and Chchd2-/- mice, and from heart, skeletal muscle and liver of mouse models of mitochondrial dysfunction (RNaseH1, Tfam, Tefm knockouts, IMT treatment) and controls; solubilised in 1% DDM or 1% digitonin
T1 sequence: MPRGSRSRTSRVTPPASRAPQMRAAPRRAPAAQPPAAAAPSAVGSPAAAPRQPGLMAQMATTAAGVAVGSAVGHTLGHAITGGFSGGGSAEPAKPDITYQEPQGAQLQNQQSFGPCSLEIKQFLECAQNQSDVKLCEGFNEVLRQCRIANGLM

[2] = biological target: T2, CHCHD3 (mouse) (mouse (endogenous in mouse tissues)) (UniProt Q9CRB9); assay: as above
T2 sequence: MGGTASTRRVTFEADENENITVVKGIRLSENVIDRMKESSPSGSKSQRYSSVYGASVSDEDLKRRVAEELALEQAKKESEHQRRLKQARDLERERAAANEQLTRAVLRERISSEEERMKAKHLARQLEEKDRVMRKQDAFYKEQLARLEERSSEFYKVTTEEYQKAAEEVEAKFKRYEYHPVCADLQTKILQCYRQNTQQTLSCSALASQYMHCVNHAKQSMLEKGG

binding [1]: binds
binding [2]: no binding
Substance: CHCHD10 (mouse)
